# Source: the supplement of paper PMC3334620
# Over roughly 33,000 sequences, “E-score (-0.5 to 0.5)” has its median near -0.016; the highest 2% begin near 0.3. The list shows a part of the results.
# Molecular target: T1, Yer184c (UniProt P39961)
# T1 sequence: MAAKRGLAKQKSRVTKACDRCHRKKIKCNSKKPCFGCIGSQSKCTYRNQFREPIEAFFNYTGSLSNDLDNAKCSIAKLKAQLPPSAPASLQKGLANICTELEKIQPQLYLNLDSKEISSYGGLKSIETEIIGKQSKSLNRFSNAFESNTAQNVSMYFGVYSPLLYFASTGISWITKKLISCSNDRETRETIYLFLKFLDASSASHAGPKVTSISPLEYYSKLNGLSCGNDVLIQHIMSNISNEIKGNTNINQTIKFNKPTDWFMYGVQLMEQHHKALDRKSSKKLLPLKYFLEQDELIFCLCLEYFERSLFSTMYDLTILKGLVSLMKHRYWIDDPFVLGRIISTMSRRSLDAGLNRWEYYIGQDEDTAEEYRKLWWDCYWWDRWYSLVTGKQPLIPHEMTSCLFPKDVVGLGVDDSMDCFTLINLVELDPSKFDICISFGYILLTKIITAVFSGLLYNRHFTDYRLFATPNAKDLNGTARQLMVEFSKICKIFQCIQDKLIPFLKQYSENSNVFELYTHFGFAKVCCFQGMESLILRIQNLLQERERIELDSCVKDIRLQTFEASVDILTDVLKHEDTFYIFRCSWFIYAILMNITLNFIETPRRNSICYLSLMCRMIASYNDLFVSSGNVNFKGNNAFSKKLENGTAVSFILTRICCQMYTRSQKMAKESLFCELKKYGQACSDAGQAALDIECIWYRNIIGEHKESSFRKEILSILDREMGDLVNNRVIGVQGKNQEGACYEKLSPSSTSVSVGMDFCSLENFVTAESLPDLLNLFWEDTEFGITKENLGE
# Test: PBM E-score (8-mer binding enrichment) (E-score (-0.5 to 0.5)); higher = stronger / more preferred TF binding
# Conditions: protein concentration: 100 nM; construct: GST-full length
# Procedure, shortened: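 The E-score, a modified Wilcoxon-Mann-Whitney statistic, was computed by the Universal PBM Analysis Suite for every ungapped eight-base word pooled with its reverse complement. Scans behind it were normalised with masliner after bound GST-tagged yeast transcription factors were detected with fluorescent anti-GST. The proteins, at about 100-200 nM, had been applied to universal all-10-mer Agilent arrays made double-stranded by primer extension.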
row,Sequence,PBM E-score
1,TCTCGCAA,-0.0365
2,TCTGATCA,0.123
3,GAGGGCTA,-0.23
4,GAGCATCA,-0.121
5,CATCCAGA,-0.157
6,CGTGGTGA,-0.139
7,CCACACAA,-0.109
8,ACTAGCAA,0.0514
9,CGGCGCGA,0.273
10,AGCCCACT,-0.258
11,ACCCGATA,0.0212
12,ACGCGGAC,0.015
13,CTTGTAGC,-0.00278
14,CCACGCCA,-0.217
15,GCTGGTAC,-0.0845
16,GTCGTAGA,-0.0563
17,AGCCCCCT,-0.395
18,CCGGGTCG,0.218
19,ACGGTGCT,-0.203
20,CGGCAAGA,0.317
21,GGCACTAA,0.15
22,ACCGGATG,0.307

row,Sequence,PBM E-score
1,AGGATGAT,-0.146
2,CGACGCGA,-0.0739
3,GGCATCCC,-0.352
4,GGCTCAGA,-0.0331
5,TCAAGTGA,-0.0206
6,CTACGGGC,-0.219
7,TCTCAGAA,0.0627
8,CAATGCGC,-0.0114
9,TGGGAAAA,-0.0424
10,AATATTGA,0.221
11,AAGCATTA,-0.00825
12,AGAACCTC,-0.107
13,TAATTGTA,0.198
14,CTGGGGAA,-0.346
15,ATCATCAC,-0.0272
16,CCGTAGCG,0.00212
17,ACACCGTA,-0.128
18,ACTTCGCA,-0.1
19,CCTCATCC,-0.196
20,CAGGTAGC,-0.0713
21,CAATCTCG,-0.011
22,GACGTATC,-0.125

# Quoted at random: 3 entries already listed
row,Sequence,PBM E-score
21,CAATCTCG,-0.011
13,TAATTGTA,0.198
18,ACTTCGCA,-0.1

# The results go on:

row,Sequence,PBM E-score
1,AAGGACGA,-0.0189
2,GAATTCGC,0.0958
3,ATGCTCCA,-0.0979
4,CGACGCCG,0.239
5,AAAAGAGG,-0.172
6,GCTTTGAC,0.123
7,AGGTATAC,0.0468
8,ACCGGGCC,0.298
9,ACCGACAC,0.135
10,TAGTAGGA,-0.068
11,ACTAACAA,0.0212
12,TCCAACAA,0.00041
13,GACGTGCA,-0.0353
14,CCCTACCC,-0.256
15,AGATGACT,-0.185
16,AATATTCG,0.0897
17,AGGCCTCG,-0.21
18,GCAAACGC,0.0695
19,ATCGTCCC,-0.0809
20,GACCGAGA,0.29
21,AACCTCGC,-0.135
22,CCCTCCAG,-0.328

row,Sequence,PBM E-score
1,GTTGCCGA,0.373
2,AAGCGTCG,-0.106
3,CCTACGCA,-0.0765
4,TAACTTGA,0.0926
5,GCCATCAA,-0.302
6,CGTCTTCC,-0.0931
7,AGCCTACT,-0.216
8,CTCCATTA,-0.189
9,AGGCAGCA,-0.0888
10,AAGGTGAT,-0.0112
11,CGTGCCAG,-0.125
12,AATATAAT,0.15
13,CCGACGAC,0.102
14,ACCACAAA,0.172
15,CCTTAGAC,0.00198
16,AACGGATG,0.197
17,CGTCTACA,-0.19
18,CTCTCATA,-0.0704
19,GTTCGGTA,0.29
20,TGGCCGAA,0.295
